We go through 2 substances from article PMC6775114.

Amino acid sequences for entries named in this document (tags omitted). Residues count along the entry.
UniProt P02545, residues 1-646: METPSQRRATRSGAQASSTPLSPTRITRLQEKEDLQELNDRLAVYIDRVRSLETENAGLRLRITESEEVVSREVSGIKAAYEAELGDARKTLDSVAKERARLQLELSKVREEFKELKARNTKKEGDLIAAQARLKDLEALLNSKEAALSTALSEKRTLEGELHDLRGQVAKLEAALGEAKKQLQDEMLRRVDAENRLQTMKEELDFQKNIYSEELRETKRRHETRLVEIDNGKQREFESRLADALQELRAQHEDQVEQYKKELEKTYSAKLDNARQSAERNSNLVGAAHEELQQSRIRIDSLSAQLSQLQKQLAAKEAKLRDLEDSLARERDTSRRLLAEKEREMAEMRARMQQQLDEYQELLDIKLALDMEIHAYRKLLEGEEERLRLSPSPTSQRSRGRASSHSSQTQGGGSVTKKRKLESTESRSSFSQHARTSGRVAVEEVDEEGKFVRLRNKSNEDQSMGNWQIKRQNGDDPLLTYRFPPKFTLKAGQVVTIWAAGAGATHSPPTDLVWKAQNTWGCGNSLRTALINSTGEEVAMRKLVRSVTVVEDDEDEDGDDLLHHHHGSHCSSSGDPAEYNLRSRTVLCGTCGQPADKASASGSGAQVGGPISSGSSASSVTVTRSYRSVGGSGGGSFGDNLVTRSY
UniProt Q07866: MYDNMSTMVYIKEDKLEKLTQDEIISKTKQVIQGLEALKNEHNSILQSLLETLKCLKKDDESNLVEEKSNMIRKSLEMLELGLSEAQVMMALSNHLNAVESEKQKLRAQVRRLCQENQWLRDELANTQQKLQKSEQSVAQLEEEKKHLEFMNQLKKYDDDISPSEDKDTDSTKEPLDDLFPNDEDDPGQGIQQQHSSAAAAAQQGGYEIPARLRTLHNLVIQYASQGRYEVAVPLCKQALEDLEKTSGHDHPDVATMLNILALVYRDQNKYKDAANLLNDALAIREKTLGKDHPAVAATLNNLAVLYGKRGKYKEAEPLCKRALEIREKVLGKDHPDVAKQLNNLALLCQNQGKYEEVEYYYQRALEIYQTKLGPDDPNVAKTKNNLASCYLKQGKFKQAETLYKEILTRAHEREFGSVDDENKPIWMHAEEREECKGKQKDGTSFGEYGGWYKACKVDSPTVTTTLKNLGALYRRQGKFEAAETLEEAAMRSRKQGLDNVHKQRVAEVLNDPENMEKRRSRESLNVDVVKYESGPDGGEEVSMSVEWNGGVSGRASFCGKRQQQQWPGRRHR

For this assay, the target named is GST-nesprin-1-alpha2 lacking the 18-amino-acid STAR domain (STARdel, aa1-842 bait protein) (human) (UniProt Q8NF91). As to the kind of experiment: pull-down; GST-tagged bait on glutathione beads, RIPA extract of human myotubes; pulled-down proteins probed by western blot; only the target purified.

These are yes or no findings as the source states them, for the method shown. Binding seen in cells or lysates may run through a third protein.

For the substance lamin A/C (from UniProt P02545 1-646), the binding result is given as “no binding”.

On to “human kinesin light-chain (kinesin light chain 1, 72 kDa) (from UniProt Q07866 1-573)”, for which the binding entry was “no binding”.
